According to article PMC7862700:
This is a selection; strong and weak results do not stand in their true shares. For part of these data: At the low end of the ranking the order means little. The list shows a part of the results. For part of these data: Construct or isoform of the protein are uncertain.

By UniProt entry, the sequences of proteins in these tests, tags left out. Where a name states a change or a piece, a line headed by the entry shows the natural chain unless it says otherwise.
UniProt P32519: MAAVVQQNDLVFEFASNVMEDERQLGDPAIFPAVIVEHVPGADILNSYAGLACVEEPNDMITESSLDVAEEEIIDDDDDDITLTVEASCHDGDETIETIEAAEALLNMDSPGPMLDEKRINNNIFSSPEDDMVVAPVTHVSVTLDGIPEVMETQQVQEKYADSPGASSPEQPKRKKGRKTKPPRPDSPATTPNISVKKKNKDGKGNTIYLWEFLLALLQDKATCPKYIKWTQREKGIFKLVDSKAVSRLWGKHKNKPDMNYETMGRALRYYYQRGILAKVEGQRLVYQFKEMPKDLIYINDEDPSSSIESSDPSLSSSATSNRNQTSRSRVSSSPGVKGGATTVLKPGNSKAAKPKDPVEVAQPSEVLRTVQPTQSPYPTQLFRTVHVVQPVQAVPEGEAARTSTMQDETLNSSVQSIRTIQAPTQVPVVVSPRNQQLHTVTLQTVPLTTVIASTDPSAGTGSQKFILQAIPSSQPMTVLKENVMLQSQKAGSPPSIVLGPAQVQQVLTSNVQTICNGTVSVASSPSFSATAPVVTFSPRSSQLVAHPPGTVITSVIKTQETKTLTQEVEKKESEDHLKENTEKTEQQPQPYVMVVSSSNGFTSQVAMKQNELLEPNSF
UniProt P50549: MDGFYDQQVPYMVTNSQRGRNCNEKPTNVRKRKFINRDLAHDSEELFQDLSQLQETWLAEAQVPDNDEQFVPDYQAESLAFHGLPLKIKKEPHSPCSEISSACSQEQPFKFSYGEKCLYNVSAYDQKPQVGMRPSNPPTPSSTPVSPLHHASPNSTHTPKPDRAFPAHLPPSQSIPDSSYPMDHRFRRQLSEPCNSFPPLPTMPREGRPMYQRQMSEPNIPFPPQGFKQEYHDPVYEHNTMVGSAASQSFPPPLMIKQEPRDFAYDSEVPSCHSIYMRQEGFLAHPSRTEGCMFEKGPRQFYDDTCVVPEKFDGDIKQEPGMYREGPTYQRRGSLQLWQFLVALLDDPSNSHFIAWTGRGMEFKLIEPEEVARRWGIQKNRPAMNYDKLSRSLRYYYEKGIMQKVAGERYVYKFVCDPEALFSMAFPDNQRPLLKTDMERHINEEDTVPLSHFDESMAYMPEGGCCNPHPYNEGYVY

Legend:
Assay in all cases: DAPPL (digital affinity profiling via proximity ligation, sequencing)
Details in all cases: 10 mM Tris-HCl pH 7.5, 50 mM NaCl, 1 mM DTT, 4% glycerol, room temperature, 30 min; GST-TFs on glutathione beads, 16-mer random dsDNA library, 0.1% …; high values mean tight binding; double strand, one strand shown; scale: fold enrichment (6-mer frequency, TF over GST control)
[1] = molecular target: T1, ERG (UniProt P11308)
T1 sequence: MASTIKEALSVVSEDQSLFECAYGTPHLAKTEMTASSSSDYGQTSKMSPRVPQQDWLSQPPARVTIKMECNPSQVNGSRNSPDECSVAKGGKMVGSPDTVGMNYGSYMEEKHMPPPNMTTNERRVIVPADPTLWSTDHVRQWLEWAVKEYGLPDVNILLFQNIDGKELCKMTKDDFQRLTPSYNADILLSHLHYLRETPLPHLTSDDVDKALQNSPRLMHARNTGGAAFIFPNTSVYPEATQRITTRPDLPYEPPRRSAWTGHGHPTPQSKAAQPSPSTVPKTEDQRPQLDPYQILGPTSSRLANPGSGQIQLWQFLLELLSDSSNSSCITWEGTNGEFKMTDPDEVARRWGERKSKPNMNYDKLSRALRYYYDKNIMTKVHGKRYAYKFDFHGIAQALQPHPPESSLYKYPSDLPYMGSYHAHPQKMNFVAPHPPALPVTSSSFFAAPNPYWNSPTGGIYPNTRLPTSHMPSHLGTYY

[2] = molecular target: ELF1 (UniProt P32519)
[3] = molecular target: T2, ELK4 (UniProt P28324-2)
T2 sequence: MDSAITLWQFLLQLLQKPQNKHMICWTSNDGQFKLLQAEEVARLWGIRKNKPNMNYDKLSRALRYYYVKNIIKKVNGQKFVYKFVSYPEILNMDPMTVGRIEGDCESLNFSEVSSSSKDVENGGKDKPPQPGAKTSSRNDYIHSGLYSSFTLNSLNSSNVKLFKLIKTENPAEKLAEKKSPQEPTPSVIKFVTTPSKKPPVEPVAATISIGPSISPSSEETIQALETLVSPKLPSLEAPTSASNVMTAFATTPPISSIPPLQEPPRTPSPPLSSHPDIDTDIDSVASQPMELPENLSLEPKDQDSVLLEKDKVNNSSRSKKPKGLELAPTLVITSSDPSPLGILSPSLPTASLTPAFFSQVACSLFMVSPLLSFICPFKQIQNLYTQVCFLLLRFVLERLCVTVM

[4] = molecular target: T3, ETV4 (UniProt P43268)
T3 sequence: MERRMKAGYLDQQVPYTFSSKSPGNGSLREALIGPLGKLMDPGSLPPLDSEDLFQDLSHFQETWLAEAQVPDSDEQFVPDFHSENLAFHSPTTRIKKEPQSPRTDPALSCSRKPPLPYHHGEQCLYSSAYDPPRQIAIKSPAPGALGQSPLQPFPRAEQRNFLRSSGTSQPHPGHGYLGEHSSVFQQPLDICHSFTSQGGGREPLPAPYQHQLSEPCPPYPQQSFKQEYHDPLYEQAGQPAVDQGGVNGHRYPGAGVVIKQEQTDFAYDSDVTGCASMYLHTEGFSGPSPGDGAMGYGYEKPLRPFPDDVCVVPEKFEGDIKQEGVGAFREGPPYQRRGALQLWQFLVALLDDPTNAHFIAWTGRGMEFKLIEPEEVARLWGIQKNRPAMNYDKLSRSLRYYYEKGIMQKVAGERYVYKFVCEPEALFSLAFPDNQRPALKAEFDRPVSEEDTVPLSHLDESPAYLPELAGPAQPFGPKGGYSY

[5] = molecular target: ETV1 (UniProt P50549)
[6] = molecular target: T4, ERF (UniProt P50548)
T4 sequence: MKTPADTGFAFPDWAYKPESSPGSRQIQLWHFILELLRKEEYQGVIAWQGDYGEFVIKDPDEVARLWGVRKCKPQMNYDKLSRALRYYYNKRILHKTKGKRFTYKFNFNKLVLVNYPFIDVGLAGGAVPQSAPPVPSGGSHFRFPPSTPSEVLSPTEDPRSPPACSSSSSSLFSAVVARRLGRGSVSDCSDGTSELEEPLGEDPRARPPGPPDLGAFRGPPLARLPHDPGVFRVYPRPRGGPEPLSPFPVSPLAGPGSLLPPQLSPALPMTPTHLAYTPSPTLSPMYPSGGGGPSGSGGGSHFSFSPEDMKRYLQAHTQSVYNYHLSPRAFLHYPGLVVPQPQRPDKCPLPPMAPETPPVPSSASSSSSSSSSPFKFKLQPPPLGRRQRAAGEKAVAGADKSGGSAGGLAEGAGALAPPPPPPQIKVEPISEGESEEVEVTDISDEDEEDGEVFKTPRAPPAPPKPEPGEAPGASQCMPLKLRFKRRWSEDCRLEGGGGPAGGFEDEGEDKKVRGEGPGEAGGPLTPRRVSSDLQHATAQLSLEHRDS

Sequence: AAGCCG
- binding signal [1]: 0.909
- binding signal [2]: 0.918
- binding signal [3]: 0.958
- binding signal [4]: 0.907
- binding signal [5]: 0.971
- binding signal [6]: 0.93

Sequence: ATTCGG
- binding signal [1]: 0.898
- binding signal [2]: 0.961
- binding signal [3]: 0.92
- binding signal [4]: 0.847
- binding signal [5]: 0.905
- binding signal [6]: 0.962

Sequence: TAGGTA
- binding signal [1]: 0.977
- binding signal [2]: 0.986
- binding signal [3]: 0.992
- binding signal [4]: 0.932
- binding signal [5]: 0.926
- binding signal [6]: 1.08

Sequence: GTATGT
- binding signal [1]: 0.98
- binding signal [2]: 1.03
- binding signal [3]: 0.971
- binding signal [4]: 0.936
- binding signal [5]: 0.988
- binding signal [6]: 0.894

Sequence: CTGGGG
- binding signal [1]: 0.845
- binding signal [2]: 0.811
- binding signal [3]: 0.983
- binding signal [4]: 0.886
- binding signal [5]: 0.86
- binding signal [6]: 0.877

Sequence: TGCAGA
- binding signal [1]: 0.928
- binding signal [2]: 0.927
- binding signal [3]: 0.989
- binding signal [4]: 0.915
- binding signal [5]: 0.999
- binding signal [6]: 0.956

Sequence: AGGATT
- binding signal [1]: 0.87
- binding signal [2]: 0.933
- binding signal [3]: 0.926
- binding signal [4]: 0.92
- binding signal [5]: 0.95
- binding signal [6]: 0.908

Sequence: GGATTA
- binding signal [1]: 0.793
- binding signal [2]: 0.832
- binding signal [3]: 0.893
- binding signal [4]: 0.821
- binding signal [5]: 0.792
- binding signal [6]: 0.848

Sequence: AGTTAT
- binding signal [1]: 0.884
- binding signal [2]: 0.874
- binding signal [3]: 0.961
- binding signal [4]: 0.882
- binding signal [5]: 0.885
- binding signal [6]: 0.881

Sequence: GCGGCA
- binding signal [1]: 0.898
- binding signal [2]: 0.875
- binding signal [3]: 0.814
- binding signal [4]: 0.921
- binding signal [5]: 0.776
- binding signal [6]: 0.802

Sequence: AGGCCC
- binding signal [1]: 0.94
- binding signal [2]: 0.983
- binding signal [3]: 0.937
- binding signal [4]: 0.983
- binding signal [5]: 0.913
- binding signal [6]: 0.964

Sequence: CCAGCA
- binding signal [1]: 0.954
- binding signal [2]: 0.997
- binding signal [3]: 0.946
- binding signal [4]: 0.956
- binding signal [5]: 0.944
- binding signal [6]: 0.917

Sequence: GAAAGC
- binding signal [1]: 0.957
- binding signal [2]: 0.861
- binding signal [3]: 0.972
- binding signal [4]: 0.888
- binding signal [5]: 0.838
- binding signal [6]: 0.888

Sequence: GGCACC
- binding signal [1]: 0.842
- binding signal [2]: 0.774
- binding signal [3]: 0.858
- binding signal [4]: 0.79
- binding signal [5]: 0.785
- binding signal [6]: 0.874

Sequence: GTGTAC
- binding signal [1]: 0.924
- binding signal [2]: 0.902
- binding signal [3]: 0.885
- binding signal [4]: 1.02
- binding signal [5]: 0.964
- binding signal [6]: 0.993

Sequence: GTGCTG
- binding signal [1]: 0.777
- binding signal [2]: 0.875
- binding signal [3]: 0.995
- binding signal [4]: 1
- binding signal [5]: 0.99
- binding signal [6]: 0.911

Sequence: TGGGCG
- binding signal [1]: 0.916
- binding signal [2]: 0.911
- binding signal [3]: 0.999
- binding signal [4]: 0.948
- binding signal [5]: 0.87
- binding signal [6]: 0.896
